# Source: PubChem BioAssay AID624297 (National Center for Advancing Translational Sciences (NCATS), 2012)
# Screen size: about 340,000 compounds; about 6,200 (1.8%) were called active. Inconclusive results, whose numbers are uncertain, are shown with a selection of clear calls. Calls come from the whole dose curve; as a rule, active = well fitted activation curve with a large enough effect; inconclusive = small, poorly fitted or top-dose-only effect; inactive = no such curve, though single readings can be large or run the other way. Potencies beside an inconclusive call are fits to weak or partial responses and may not hold up.
# Assay: A quantitative high throughput screen for small molecules that induce DNA re-replication in SW480 colon adenocarcinoma cells. For re-replication activation: % of control where 0% means no effect. Note: nearly all actives have a fitted effect of over 55% in size.
# Conditions: Hoechst DNA content imaging, 48 h; re-replication activation: at 46.1 µM (top of the series) unless noted
# Summary of the method: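 Hoechst fluorescence of nuclei (405 nm excitation, 500-530 nm emission) measured by plate-scanning imager after 48 hr compound exposure at 37 C; re-replication scored as increased number of nuclei with elevated intensity.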
# Potency is the fitted concentration of half-maximal effect.
Compound,re-replication activation,Potency
Cc1ccc(-c2nn(-c3ccccc3)cc2CNCc2ccccc2)cc1,inactive: -9.51%,–
CCCN1CCN(C(=S)NCc2ccc(Cl)cc2)CC1,inactive: 0.0306%,–
COc1ccc(Cl)cc1NC(=O)CN(C)C(=O)c1sc2ccccc2c1Cl,–,"inconclusive: 29.1 µM [activator, single point]"
Cc1c(Nc2nc(C(F)(F)F)nc3ccccc23)c(=O)n(-c2ccccc2)n1C,–,"inconclusive: 2.91 µM [activator, single point]"
C#CCOCCOCCOCCNc1nc(N2CCN(C(=O)Cn3cc(CC(C)O)nn3)CC2)nc(N2CCN(C(=O)[C@H](C)n3cc(CCC(=O)O)nn3)CC2)n1 (stereo partly specified),–,"inconclusive: 6.51 µM [activator, single point]"
Cc1occc1C(=O)N1CCN(c2ccc([N+](=O)[O-])cc2)CC1,–,"inconclusive: 4.61 µM [activator, partial curve, poor fit]"
O=C(CN1C(=O)c2ccccc2S1(=O)=O)c1ccc(F)cc1,inactive: 0.0398%,–
Cc1cccc(CNC(=O)C2CCC(=O)N(CCc3cccc(F)c3)C2)n1 (stereo unspecified),–,"inconclusive: 3.66 µM [activator, single point]"
COC(=O)c1ccc2c(c1)C(C)(C)C(/C=C/c1ccc(O)cc1)=[N+]2C,–,active: 6.31 µM
CN(Cc1c(C(=O)N/N=C/c2ccc(O)cc2)nnn1-c1nonc1N)c1ccccc1,–,"inconclusive: 29.1 µM [activator, single point]"
COc1ccc2[nH]c3c(c2c1)CCN1C(=O)C(CC(=O)NCCN2CCOCC2)C[C@H](C(=O)N2CCOCC2)[C@@]31C (stereo partly specified),inactive: -20.7%,–
CC1CCCN(CC(=O)N2c3ccccc3Sc3ccccc32)C1 (stereo unspecified),–,"inconclusive: 6.51 µM [activator, full curve, poor fit]"
C=C1CCC[C@]2(C)C[C@H]3OC(=O)C(CNC(C)(CO)CO)[C@H]3CC12 (stereo partly specified),–,"inconclusive: 20.6 µM [activator, single point]"
O=C(COC(=O)c1c2c(nc3ccccc13)/C(=C/c1ccco1)CC2)NC1CCCC1,–,active: 13 µM
O=C(/C=C/c1ccccc1)C1C(=O)c2ccccc2C1=O,inactive: -6.36%,–
COCCNc1cc(C)nc2cc(-c3ccc(C)cc3)nn12,–,active: 16.4 µM
CCOc1ccc(S(=O)(=O)N2CCOCC2)cc1NC(=O)Cc1c(F)cccc1Cl,–,"inconclusive: 0.461 µM [activator, partial curve, poor fit]"
COc1ccc(-c2cc(C(=O)NCc3ccco3)c3ccccc3n2)cc1OC,inactive: 1.1%,–
O=[N+]([O-])c1ccc(Oc2cccc(Br)c2)c2ccncc12,–,"inconclusive: 29.1 µM [activator, single point]"
COc1ccc(Nc2nc(N3CCCCC3)c3ccccc3n2)cc1,inactive: 6.85%,–
COc1ccc(N2C(=O)/C(=C\c3ccco3)N=C2SCC(=O)NC(C)(C)C)cc1Cl,–,"inconclusive: 25.9 µM [activator, single point]"
Cc1ccc(C)c(-c2cc(C(=O)NC3CC3)c3ccccc3n2)c1,inactive: 0.637%,–
O=c1[nH]c2ccc(Cl)cc2c(-c2ccccc2)c1N1CCOCC1,–,"inconclusive: 29.1 µM [activator, single point]"
C/C(=N\NC(=O)c1ccco1)c1cc(Cl)sc1Cl,–,"inconclusive: 29.1 µM [activator, single point]"

# Quoted at random: 2 records from the list, in no set order.
Compound,re-replication activation,Potency
Cc1occc1C(=O)N1CCN(c2ccc([N+](=O)[O-])cc2)CC1,–,"inconclusive: 4.61 µM [activator, partial curve, poor fit]"
COc1ccc(Cl)cc1NC(=O)CN(C)C(=O)c1sc2ccccc2c1Cl,–,"inconclusive: 29.1 µM [activator, single point]"

# Of the compounds above, these have an NH in an aromatic ring:
Compound,re-replication activation,Potency
COc1ccc2[nH]c3c(c2c1)CCN1C(=O)C(CC(=O)NCCN2CCOCC2)C[C@H](C(=O)N2CCOCC2)[C@@]31C (stereo partly specified),inactive: -20.7%,–
O=c1[nH]c2ccc(Cl)cc2c(-c2ccccc2)c1N1CCOCC1,–,"inconclusive: 29.1 µM [activator, single point]"

# Later entries:

Compound,re-replication activation,Potency
COc1cc2c(cc1OC)C(c1cccc(F)c1)CC(=O)N2 (stereo unspecified),–,"inconclusive: 0.92 µM [activator, single point]"
Cc1ccc(C)c(S(=O)(=O)Nc2ccccc2C(=O)Nc2cc(C)on2)c1,–,"inconclusive: 6.51 µM [activator, partial curve, poor fit]"
O=S(=O)(NC1C2CC3CC(C2)CC1C3)c1ccccc1 (stereo unspecified),inactive: -0.238%,–
Cc1cc(N2CCOCC2)nc2ccc(NC(=S)N3CCN(c4ccccc4)CC3)cc12,–,"inconclusive: 29.1 µM [activator, single point]"
CCN(CC)C(=O)CSc1nnc2nnc3cc(C)ccc3n12,inactive: 13.6%,–
COc1ccc(NC(=O)C2(c3cccs3)CCOCC2)cc1,inactive: 24.1%,–
C/C(=N\N=C(N)N)c1ccc(C)c(C)c1,–,"inconclusive: 18.4 µM [activator, single point]"
COCCN1CCN(Cc2nc(C3(c4ccc(C)cc4)CCCC3)no2)CC1,–,"inconclusive: 17.8 µM [activator, partial curve, poor fit]"
COc1cc(OC)cc(-c2nc3ccccc3c(=O)n2OC(=O)c2ccc(C)c(C)c2)c1,inactive: -1.12%,–
COc1ccc(Nc2c3c(nc4ccccc24)CCC3)c(OC)c1,–,"inconclusive: 29.1 µM [activator, single point]"
CCN1CCN(S(=O)(=O)c2ccc(Cl)c(C(=O)N(C)Cc3ccc(Cl)cc3Cl)c2)CC1,–,"inconclusive: 18.4 µM [activator, single point]"
O=C(CN1CCOCC1)Nc1ccccc1F,–,"inconclusive: 29.1 µM [activator, single point]"
CCN(C(C)=O)N(CC)c1nc(Cl)nc(NC(C)C)n1,inactive: -8.91%,–
CSc1ccccc1NC(=O)CSCc1ccc(C)cc1,–,"inconclusive: 29.1 µM [activator, single point]"
COc1ccc(N=Cc2cc3c(cc2O)OC(N)=C(C#N)C3c2ccccc2)cc1 (stereo unspecified),–,"inconclusive: 29.1 µM [activator, single point]"
COc1ccc(C(C(=O)NCC2CCCO2)N(C(=O)Cn2nnc3ccccc32)c2ccc(NC(C)=O)cc2)cc1OC (stereo unspecified),–,"inconclusive: 18.4 µM [activator, partial curve, poor fit]"
COc1cccc(CN(C(=O)COc2ccccc2[N+](=O)[O-])C2CCS(=O)(=O)C2)c1 (stereo unspecified),–,"inconclusive: 29.1 µM [activator, single point]"
CN(CC(=O)Nc1ccc(Cl)c(C(F)(F)F)c1)C(=O)c1cn2ccccc2n1,inactive: -1.51%,–
C=CCn1c(SCC(=O)N2CCOCC2)nnc1C(C)NC(=O)c1ccccc1 (stereo unspecified),–,"inconclusive: 6.51 µM [activator, single point]"
Cc1ccc(C)c(S(=O)(=O)N2CCCOC2CNC(=O)C(=O)NCc2ccccn2)c1 (stereo unspecified),inactive: 0.896%,–
CCc1ccc(-c2cc3c(=O)n(CC(=O)NCCCN4CCC(Cc5ccccc5)CC4)nc(C)n3n2)cc1,–,"inconclusive: 0.0046 µM [activator, full curve, poor fit]"
CCc1nn(CC(=O)NCCCN2CCN(C)CC2)c(=O)c2cc3sccc3n12,inactive: -3.38%,–
Clc1ccc(-c2nc(NCCN3CCOCC3)c3ccccc3n2)cc1,–,"inconclusive: 20.6 µM [activator, single point]"
OCC(O)C(O)C(O)c1cnn(-c2ccccc2)n1 (stereo unspecified),inactive: -1.16%,–

Compound,re-replication activation,Potency
NC1=NC2(CCCCC2)N=C(Nc2ccc(F)cc2F)N1,inactive: -6.93%,–
NC(=O)C(=O)N/N=C/c1c2ccccc2cc2ccccc12,–,"inconclusive: 23.1 µM [activator, single point]"
COc1ccc(-c2nc3cnccn3c2NCc2ccccc2)cc1SC1CCCCC1,–,"inconclusive: 29.1 µM [activator, single point]"
S=C(Nc1ccccc1)N1CCn2c1nc1ccccc12,–,"inconclusive: 29.1 µM [activator, single point]"
O=C1CC(c2ccccc2)CC(O)=C1C=Nc1ccc(Cl)cc1 (stereo unspecified),–,"inconclusive: 18.4 µM [activator, single point]"
COc1ccc(C2=NN(S(=O)(=O)c3ccccc3)C(c3ccccc3)C2)cc1 (stereo unspecified),–,"inconclusive: 29.1 µM [activator, single point]"
COc1ccc(NC(=O)CCSc2ccc(C)cc2)cc1S(=O)(=O)Nc1ccccc1Cl,–,"inconclusive: 25.9 µM [activator, partial curve, poor fit]"
O=C(CCCSCCCC(=O)NN=Cc1ccccc1)NN=Cc1ccccc1,inactive: -6.66%,–
CC1(C(=O)N/N=C/c2c(F)c(F)c(F)c(F)c2F)CC1(Cl)Cl (stereo unspecified),–,"inconclusive: 23.1 µM [activator, single point]"
CCOc1ccccc1NC(=O)c1ccc(C(=O)Nc2ccccc2OCC)nc1,–,"inconclusive: 29.1 µM [activator, partial curve, poor fit]"
COc1cccc(/C=N/NC(=O)Cn2cnc3c2c(=O)n(C)c(=O)n3C)c1,inactive: -6.24%,–
COCCOC(=O)C1=C(C)OC(N)=C(C#N)C1c1cc2cccc(C)c2nc1Cl (stereo unspecified),inactive: 4.28%,–
O=C(NC1CCCC1)c1ccc(CS(=O)Cc2ccccc2Cl)o1 (stereo unspecified),–,"inconclusive: 0.517 µM [activator, full curve, poor fit]"
CCCCNC1=CC(=O)C(NCCCC)=CC1=O,–,"inconclusive: 0.651 µM [activator, partial curve, poor fit]"
N#CCCN(C(=O)COc1ccc(C#N)cc1)c1ccc(F)cc1,–,"inconclusive: 1.16 µM [activator, single point]"
O=C(C1CCN(Cc2ccccc2)CC1)N1CCN(C/C=C/c2ccccc2)CC1,inactive: -1.57%,–
CC1CCCN(C(=O)C2CCN(C(=O)Nc3ccccc3)CC2)C1 (stereo unspecified),inactive: -13.2%,–
COc1ccc(S(=O)(=O)N2CCOC23CCN(C(=O)c2ccccc2OC)CC3)cc1,inactive: -21.1%,–
Cc1nc2ccccc2cc1C(=O)NCc1ccc(F)cc1,–,"inconclusive: 29.1 µM [activator, single point]"
CCCN(CC(=O)Nc1ccc(F)c(F)c1F)CC(=O)Nc1c(Cl)cccc1Cl,–,"inconclusive: 0.0231 µM [activator, full curve, poor fit]"
COc1cnc(-c2ccccc2)nc1Oc1cccc(C)c1,inactive: -3.08%,–
Cc1ccccc1C(=O)Oc1ccc(-c2csnn2)cc1,–,"inconclusive: 25.9 µM [activator, single point]"
C/C(=N\NC(=O)c1nnn(-c2nonc2N)c1-c1ccc2c(c1)OCO2)c1ccccc1,–,"inconclusive: 16.4 µM [activator, single point]"
